For at least one entry, the source does not settle the construct or the ends of the probe. No signal at the amounts used counts as a negative.

We go through 3 sequences from article PMC9861123.

The data set deals with TaHsfA1 (Triticum aestivum). The data set can be described thus: EMSA. Particulars: LightShift Chemiluminescent EMSA Kit, manufacturer's instructions; 10-, 100- and 1000-fold unlabeled competitor; pH and temperature not stated; recombinant protein; protein details: N-terminal GST (pGEX-4T-1); label: 5'-biotin. In general terms: A gel shift assay detects complexes by their altered migration in electrophoresis.
With “GCGCCGCGCGGCCCAGAACCTTCCGCCCCGGCCCCCGTCC (double strand) [HSE1 probe]”, the binding result is given as “binds”. Regarding “AAGTGATATTTGAGAGAAAATTCCTTATTTGACACTATCTTAA (double strand) [HSE3 probe]”, the binding result is recorded as “no binding”. As to “CGGCCCCGGCGTCCAGAAGCTTCCGAGCCGGCCGGTCACG (double strand) [HSE2 probe]”, the binding result was “binds”.
